Results from PMC10937676, “Targeting the NTSR2/TrkB oncogenic pathway in chronic lymphocytic leukemia” (Scientific Reports, 2024).
These are yes or no findings as the source states them, for the method shown. In cells and extracts the contact can be indirect. Some binding calls cover weakened binding; strength is not graded here.

Sequences of proteins named here, by UniProt entry; tags and fusion partners are left off. Residues count along the entry.
UniProt O95665: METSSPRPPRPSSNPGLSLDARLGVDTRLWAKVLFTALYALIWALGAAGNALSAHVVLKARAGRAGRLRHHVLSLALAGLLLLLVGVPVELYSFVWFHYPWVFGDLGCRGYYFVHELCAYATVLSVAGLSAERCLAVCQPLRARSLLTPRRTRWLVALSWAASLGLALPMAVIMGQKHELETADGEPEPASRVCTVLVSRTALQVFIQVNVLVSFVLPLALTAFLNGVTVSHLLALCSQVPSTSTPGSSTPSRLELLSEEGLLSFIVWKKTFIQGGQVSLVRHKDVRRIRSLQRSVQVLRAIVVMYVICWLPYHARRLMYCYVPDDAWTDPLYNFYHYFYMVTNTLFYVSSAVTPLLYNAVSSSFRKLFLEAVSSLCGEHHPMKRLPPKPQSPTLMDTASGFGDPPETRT
UniProt Q16620, residues 32-822: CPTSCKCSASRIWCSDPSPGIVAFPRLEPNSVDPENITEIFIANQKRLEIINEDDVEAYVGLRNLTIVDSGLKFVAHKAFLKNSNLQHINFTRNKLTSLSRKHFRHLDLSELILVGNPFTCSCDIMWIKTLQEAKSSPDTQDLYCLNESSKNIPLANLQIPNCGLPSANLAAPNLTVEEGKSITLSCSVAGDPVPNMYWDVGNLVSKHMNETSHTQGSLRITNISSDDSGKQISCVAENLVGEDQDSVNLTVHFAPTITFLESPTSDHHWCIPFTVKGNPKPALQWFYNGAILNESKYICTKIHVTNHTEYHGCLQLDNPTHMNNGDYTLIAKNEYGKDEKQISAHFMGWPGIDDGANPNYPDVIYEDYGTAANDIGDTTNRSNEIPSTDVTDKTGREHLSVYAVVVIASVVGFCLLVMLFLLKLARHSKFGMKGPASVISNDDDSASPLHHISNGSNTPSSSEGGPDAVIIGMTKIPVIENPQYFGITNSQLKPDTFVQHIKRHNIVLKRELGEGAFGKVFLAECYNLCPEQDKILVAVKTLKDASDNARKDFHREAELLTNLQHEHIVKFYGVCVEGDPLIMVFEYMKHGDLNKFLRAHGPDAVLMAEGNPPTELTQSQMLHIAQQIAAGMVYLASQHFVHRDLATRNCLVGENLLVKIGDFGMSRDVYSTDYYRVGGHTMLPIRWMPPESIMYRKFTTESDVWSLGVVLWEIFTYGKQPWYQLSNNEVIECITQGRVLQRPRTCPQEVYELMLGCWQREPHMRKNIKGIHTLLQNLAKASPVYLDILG

Key:
[1] = target: NTSR2 (neurotensin receptor 2), untagged, expressed in HEK293T cells (UniProt O95665); assay: proximity ligation; Duolink PLA for NTSR2 and TRKB on methanol-fixed HEK293T cells transfected with a plasmid encoding TRKB and NTSR2, with or without BDNF
[2] = target: NTSR2-AviTag (neurotensin receptor 2 with an AviTag, biotinylated by BirA) (UniProt O95665); assay: pull-down; biotinylated AviTag-NTSR2 (whole or truncated) isolated on streptavidin-coated magnetic beads from RIPA lysates of transfected HEK293T cells, 2 h at 4 °C; TRKB detected by immunoblot; cells with 40 µM biotin, with or without BDNF

binding [1]: binds
binding [2]: binds
Substance: TRKB (tropomyosin related kinase B), expressed in HEK293T cells (from UniProt Q16620 32-822) (receptor)
